From the Kinase Knowledgebase extract (Sharma et al. 2016)
pIC50: −log10 of the molar value.

By UniProt entry, the sequences of proteins in these tests, tags left out.
UniProt P42336, whole entry, looked up: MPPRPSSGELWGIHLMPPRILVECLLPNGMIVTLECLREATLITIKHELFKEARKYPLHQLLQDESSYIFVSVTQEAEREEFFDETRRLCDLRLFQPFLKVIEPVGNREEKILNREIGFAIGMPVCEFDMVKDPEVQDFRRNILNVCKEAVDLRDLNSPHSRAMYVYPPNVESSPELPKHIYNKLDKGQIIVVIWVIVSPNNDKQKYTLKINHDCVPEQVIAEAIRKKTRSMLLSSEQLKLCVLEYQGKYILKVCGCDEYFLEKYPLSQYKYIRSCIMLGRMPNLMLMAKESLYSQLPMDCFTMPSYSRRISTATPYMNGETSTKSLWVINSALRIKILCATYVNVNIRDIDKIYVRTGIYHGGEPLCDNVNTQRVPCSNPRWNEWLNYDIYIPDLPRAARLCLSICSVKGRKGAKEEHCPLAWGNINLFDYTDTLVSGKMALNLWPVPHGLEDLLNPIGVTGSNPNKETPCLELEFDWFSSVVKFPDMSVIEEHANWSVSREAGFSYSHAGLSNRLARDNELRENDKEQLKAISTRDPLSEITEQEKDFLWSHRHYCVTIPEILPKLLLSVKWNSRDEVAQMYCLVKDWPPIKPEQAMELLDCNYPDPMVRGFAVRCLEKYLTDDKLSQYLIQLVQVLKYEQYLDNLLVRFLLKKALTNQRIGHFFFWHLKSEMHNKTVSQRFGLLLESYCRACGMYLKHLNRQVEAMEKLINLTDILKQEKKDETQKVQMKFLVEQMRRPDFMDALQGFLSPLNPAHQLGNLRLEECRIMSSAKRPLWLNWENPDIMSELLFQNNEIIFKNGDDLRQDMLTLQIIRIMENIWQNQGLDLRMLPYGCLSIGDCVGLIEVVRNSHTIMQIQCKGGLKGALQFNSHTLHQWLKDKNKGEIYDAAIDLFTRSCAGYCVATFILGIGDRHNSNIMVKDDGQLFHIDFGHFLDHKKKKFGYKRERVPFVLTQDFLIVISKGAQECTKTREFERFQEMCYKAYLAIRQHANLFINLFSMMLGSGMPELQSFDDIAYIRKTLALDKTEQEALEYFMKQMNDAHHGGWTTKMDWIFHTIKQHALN

These compounds were tested against PIK3CA (human) (UniProt P42336) (assay: Inhibition of PIK3CA Kinase Activity).

| Structure (SMILES) | pIC50 |
| --- | --- |
| CC[C@@H](C)n1cnc2c(-c3cnc(N)nc3)nc(N3CCOCC3)nc21 | > 6.00 |
| CC[C@H](C)n1cnc2c(-c3cnc(N)nc3)nc(N3CCOCC3)nc21 | > 6.00 |
| CCC(C)n1cnc2c(-c3cnc(N)nc3)nc(N3CCOCC3)nc21 (stereo not drawn) | > 6.00 |
